The values that follow come from PMC12104430.

Amino acid sequences for entries named in this document (tags omitted). Residues count along the entry.
UniProt P14778, residues 18-569: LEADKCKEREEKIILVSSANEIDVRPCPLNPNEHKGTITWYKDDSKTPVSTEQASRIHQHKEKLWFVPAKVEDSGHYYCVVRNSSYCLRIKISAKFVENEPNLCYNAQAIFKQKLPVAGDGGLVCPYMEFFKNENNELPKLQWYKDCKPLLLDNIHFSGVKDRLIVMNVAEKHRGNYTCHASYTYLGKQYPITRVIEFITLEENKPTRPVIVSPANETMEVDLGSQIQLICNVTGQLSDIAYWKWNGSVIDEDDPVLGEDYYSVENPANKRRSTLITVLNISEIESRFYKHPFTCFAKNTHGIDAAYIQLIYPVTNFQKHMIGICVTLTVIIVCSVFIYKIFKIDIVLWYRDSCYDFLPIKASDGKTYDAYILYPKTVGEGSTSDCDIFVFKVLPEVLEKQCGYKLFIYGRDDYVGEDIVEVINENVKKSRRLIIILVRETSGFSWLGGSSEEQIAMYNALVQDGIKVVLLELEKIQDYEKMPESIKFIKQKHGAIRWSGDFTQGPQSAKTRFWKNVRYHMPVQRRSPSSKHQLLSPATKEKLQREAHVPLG

Results are given in words; binding and its absence hold for the method and conditions named. Binding seen in cells or lysates may run through a third protein. Some results given as binding are weak or reduced against the parent protein; the word gives no strength. Sequences can lack the tags named with a protein.

The target of this experiment is Interleukin-1 receptor 1 (Flag-IL1R1) (human) (UniProt P14778). The experiment in a line: co-IP; HEK293T cells transiently transfected with HA-OMD and Flag-IL1R1; lysed in EBC buffer (50 mmol/L Tris-HCl pH 8.0, 120 mmol/L NaCl, 0.5% Nonidet P-40), sonicated; lysate pre-cleared with protein A/G Sepharose, incubated with anti-Flag or anti-HA agarose beads 2 h at 4 °C; washed 4 times with NETN buffer; immunoblot. (Immunoblotting shows a protein as a band on a membrane.)

B1: Osteomodulin (HA-OMD) (protein, UniProt Q99983 21-421)
chain: QYETYQWDEDYDQEPDDDYQTGFPFRQNVDYGVPFHQYTLGCVSECFCPTNFPSSMYCDNRKLKTIPNIPMHIQQLYLQFNEIEAVTANSFINATHLKEINLSHNKIKSQKIDYGVFAKLPNLLQLHLEHNNLEEFPFPLPKSLERLLLGYNEISKLQTNAMDGLVNLTMLDLCYNYLHDSLLKDKIFAKMEKLMQLNLCSNRLESMPPGLPSSLMYLSLENNSISSIPEKYFDKLPKLHTLRMSHNKLQDIPYNIFNLPNIVELSVGHNKLKQAFYIPRNLEHLYLQNNEIEKMNLTVMCPSIDPLHYHHLTYIRVDQNKLKEPISSYIFFCFPHIHTIYYGEQRSTNGQTIQLKTQVFRRFPDDDDESEDHDDPDNAHESPEQEGAEGHFDLHYYENQE
Consider B1, for which the binding result is on record as “binds”.
